Laboratory results taken from PubChem BioAssay AID1347131 (National Center for Advancing Translational Sciences (NCATS), 2019).
Hit rate of the full screen: of about 410,000 compounds, about 2,000 (0.49%) were called active. This list was built around the results that the source calls inconclusive (neither active nor inactive); the mix of calls is not that of the screen. The call rests on the fitted dose curve; tested in HEK293 reporter line. A potency beside an inconclusive call is a rough fit, not a confirmed value.

experiment: qHTS Assay for Foot and Mouth Disease Virus Antivirals: Primary Screen against the MLPCN compound library; conditions: FMDV antiviral cell-based qHTS; activity, negative = inhibition: at 57.9 µM (top of the series); further: nearly all actives have a fitted effect of over 55% in size
Potency means the concentration at half of the fitted maximal effect.

Compound | Potency | activity, negative = inhibition
CC(C)C(=O)N1CCN(c2ccc(NC(=O)COc3ccccc3[N+](=O)[O-])cc2)CC1 | inconclusive: 15.8 µM [inhibitor, partial curve, poor fit] | 
O=C(Nc1ccc2ccccc2c1)c1ccccc1O | active: 14.1 µM | 
CC[n+]1c(/C=C/c2c[nH]c3ccccc23)ccc2cc(C)ccc21 | inconclusive: 12.6 µM [inhibitor, partial curve, poor fit] | 
COc1cc(C=C(C#N)C(=O)c2ccccc2)cc(OC)c1OC | inconclusive: 2.24 µM [inhibitor, full curve] | 
Cc1ccc(C(=O)N2C3C=CC(C3)C2(C(F)(F)F)C(F)(F)F)cc1 (centres undefined) | inconclusive: 5.62 µM [inhibitor, partial curve, poor fit] | 
Cc1cc(Br)cc(C)c1OCC(=O)NNC(=O)c1cccs1 | inactive | 
CCN(CC)CCNC(=O)c1nn(-c2ccc(Cl)cc2)c2c1CCc1cc(OC)ccc1-2 | inactive | 
Cc1ccc(Nc2ncnc3c2nc2n3CCCC2)c(Br)c1 | inconclusive: 12.6 µM [inhibitor, single point] | 
Cc1c(-c2ccccc2)n(-c2ccccc2O)c2nc3c(c(=O)n(C)c(=O)n3C)n12 | inconclusive: 25.1 µM [inhibitor, partial curve, poor fit] | 
COc1ccc(CCNC(=O)c2ccc(Cl)c(S(=O)(=O)N3CCCCCC3)c2)cc1 | inconclusive: 14.1 µM [inhibitor, partial curve, poor fit] | 
COc1ccc(Cl)cc1NC(=O)CN(C)C(=O)c1cc(-c2cccs2)nn1-c1ccccc1 | inconclusive: 22.4 µM [inhibitor, single point] | 
CCCCCCN1C=CC(=C2C(=O)c3ccccc3C2=O)C=C1 | inconclusive: 12.6 µM [inhibitor, partial curve, poor fit] | 
COc1ccc(-c2nnc(SCc3ccccc3F)o2)cc1 | inconclusive: 39.8 µM [inhibitor, single point] | 
Cc1cc(SCC(=O)N/N=C/c2ccc(O)cc2O)nc2ccccc12 | inconclusive: 14.1 µM [inhibitor, partial curve] | 
O=c1c2[nH]cnc2n(-c2cccc(F)c2)c(=O)n1Cc1ccccc1 | inconclusive: 7.94 µM [inhibitor, partial curve] | 
Cc1ccc(-c2csc3ncnc(SCC(=O)c4ccc5c(c4)OCCO5)c23)cc1 | inconclusive: 20 µM [inhibitor, single point] | 
COc1ccc(-n2c(SCC#N)nnc2-c2ccc(NS(=O)(=O)c3ccc(C)cc3)cc2)cc1 | inconclusive: 22.4 µM [inhibitor, single point] | 
COc1cc(OC)c(OC)cc1CNC(=O)c1cc(S(=O)(=O)N(C)c2ccccc2OC)ccc1C | inconclusive: 28.2 µM [inhibitor, partial curve, poor fit] | 
Cn1c(Oc2ccc(Cl)cc2)nc2c1c(=O)n(Cc1ccc(F)cc1)c(=O)n2C | inconclusive: 15.8 µM [inhibitor, partial curve, poor fit] | 
c1nc(NCc2ccc3c(c2)OCO3)c2cc(-c3ccc4c(c3)OCCO4)ccc2n1 | inactive | 

Compound | Potency | activity, negative = inhibition
COc1ccc(CC(=O)N2CCc3cc(OC)c(OC)cc3C2COc2ccc(F)cc2)cc1OC (centres undefined) | inconclusive: 25.1 µM [inhibitor, partial curve, poor fit] | 
Cc1ccc(/C=C2\SC(=S)N(CCCC(=O)NNC(=O)c3ccccc3O)C2=O)cc1 | inconclusive: 8.91 µM [inhibitor, partial curve, poor fit] | 
CCCCn1c(-c2ccc(C(C)(C)C)cc2)nc2cc3[nH]c(=O)c(C(C)C)nc3cc21 | inconclusive: 35.5 µM [inhibitor, partial curve, poor fit] | 
Cc1ccc(S(=O)(=O)C(c2ccccc2)c2c(C)noc2C)cc1 (centres undefined) | inconclusive: 25.1 µM [inhibitor, partial curve, poor fit] | 
Cc1nc(-c2ccc(NC(=O)c3ccccc3)cc2)cs1 | inconclusive: 17.8 µM [inhibitor, single point] | 
Cc1ccsc1/C=N/Nc1ncc(Cl)cc1Cl | inconclusive: 17.8 µM [inhibitor, single point] | 
CCOC(=O)c1c(NC(=O)CN2CCN(c3cccc(Cl)c3)CC2)sc(C)c1C | inconclusive: 3.98 µM [inhibitor, partial curve] | 
CN1CCc2nc3sc(C(=O)Nc4ccccc4C(F)(F)F)c(N)c3cc2C1 |  | inconclusive: -31.5% [inhibitor]
CCN(CC)c1ccc(-c2nc(-c3ccco3)no2)cc1[N+](=O)[O-] | inconclusive: 11.2 µM [inhibitor, partial curve] | 
O=C(O)c1ccc(/C=C2\COc3ccccc3C2=O)cc1 | inconclusive: 22.4 µM [inhibitor, partial curve, poor fit] | 
CC1(C)C(=O)OC(/C=C\c2cccc([N+](=O)[O-])c2)C(C)(C)C1=O (centres undefined) | inconclusive: 1.78 µM [inhibitor, full curve] | 
Fc1ccc(-[n+]2nc(Nc3ccccc3)sc2-c2c3ccccc3cc3ccccc23)cc1 | inconclusive: 39.8 µM [inhibitor, partial curve, poor fit] | 
NC(=O)CC(NC(=S)NCc1ccccc1)C(=O)O (centres undefined) |  | inconclusive: -30.5% [inhibitor]
Cc1ccc(-c2cc(C(F)F)nc(S(C)(=O)=O)n2)cc1 | inconclusive: 31.6 µM [inhibitor, partial curve, poor fit] | 
C[C@H]1CCC[C@@H](O)CCC/C=C/c2cc(O)cc(O)c2C(=O)O1 | inconclusive: 3.55 µM [inhibitor, full curve, poor fit] | 
COc1ccc(/C=C/C(=O)Nc2cccc(S(=O)(=O)NC3=NCCCCC3)c2)cc1OC | inconclusive: 39.8 µM [inhibitor, partial curve, poor fit] | 
O=C(CN(Cc1cccs1)C(=O)CSc1nnc(COc2ccccc2)o1)NC1CCCCC1 | inconclusive: 39.8 µM [inhibitor, partial curve, poor fit] | 
COc1ccc(CCN(Cc2cc3ccc(C)cc3[nH]c2=O)C(C)=O)cc1OC | inconclusive: 5.62 µM [inhibitor, partial curve] | 
CCOC(=O)c1cc(C)n(CC2CCC(C(=O)Nc3ccc(C(=O)OC)cc3)CC2)c1C (centres undefined) | inactive | 
COc1ccc(C(=O)Nc2ccccc2N2CCN(C(=O)c3ccccc3)CC2)cc1Br | inconclusive: 17.8 µM [inhibitor, single point] | 

Compound | Potency | activity, negative = inhibition
CCOc1ncccc1C(=O)OCc1ccc(C(=O)OC)o1 | inconclusive: 5.62 µM [inhibitor, partial curve, poor fit] | 
O=C1c2ccccc2C2=Nc3ccccc3SC(c3ccccc3F)C12 (centres undefined) | inconclusive: 39.8 µM [inhibitor, single point] | 
COc1cccc(C2c3c(oc4ccccc4c3=O)C(=O)N2c2ccccn2)c1 (centres undefined) | inconclusive: 17.8 µM [inhibitor, partial curve, poor fit] | 
COc1cccc2cc(-c3nnc(SCC(=O)Nc4cc(C(F)(F)F)ccc4Cl)n3N)oc12 | inconclusive: 20 µM [inhibitor, single point] | 
O=[N+]([O-])c1ccc(Cl)cc1Sc1nc2ccccc2o1 | inconclusive: 8.91 µM [inhibitor, partial curve, poor fit] | 
CC(C)(C)OC(=O)N1CCC(c2c(C(=O)N3CCN(Cc4ccccc4)CC3)cnn2-c2ccc(Cl)cc2)CC1 | inactive | 
O=C(CCCSc1nc2ccccc2[nH]1)N1CCN(c2ccc([N+](=O)[O-])cc2)CC1 | inconclusive: 17.8 µM [inhibitor, partial curve, poor fit] | 
Cc1sc2ncnc(NCC3CCCO3)c2c1C (centres undefined) | inconclusive: 28.2 µM [inhibitor, partial curve, poor fit] | 
Cc1cccc(N2CCN(C(=O)c3cc4c(=O)n(C)c5ccccc5c4n3C)CC2)c1C | inconclusive: 31.6 µM [inhibitor, partial curve, poor fit] | 
COc1ccc(Br)cc1/C=C/C(=O)c1ccc(NC(C)=O)cc1 | inconclusive: 10 µM [inhibitor, partial curve, poor fit] | 
Cc1ccc(NC(=O)CCC(=O)N/N=C/c2coc3ccc(F)cc3c2=O)cc1 | inconclusive: 15.8 µM [inhibitor, partial curve] | 
COc1nc(-c2ccccc2)nc(-c2ccccc2)c1C | inconclusive: 5.01 µM [inhibitor, partial curve, poor fit] | 
COc1ccc(CCn2c(C)nc3ccccc3c2=O)cc1OC | inconclusive: 7.08 µM [inhibitor, partial curve] | 
COc1ccc(CNC(=O)C2CCCN(S(=O)(=O)N3CC(C)CC(C)C3)C2)c(OC)c1 (centres undefined) | inconclusive: 10 µM [inhibitor, partial curve, poor fit] | 
CCOc1nc(-c2ccccc2)c2cc(Br)ccc2n1 | inconclusive: 11.2 µM [inhibitor, partial curve, poor fit] | 
CCCc1nn2cc(-c3ccc(C)c(C)c3)nc2s1 | active: 14.1 µM | 
COc1ccc(C(=O)/C=C2/C(=O)Nc3ccccc32)cc1OC | inconclusive: 31.6 µM [inhibitor, partial curve, poor fit] | 
Cc1ccccc1CS(=O)(=O)c1cn(CC(=O)N2CCC(C)CC2)c2ccccc12 | inactive | 
O=C(Nc1ccc2nc3n(c(=O)c2c1)CCCCC3)c1c(F)ccc([N+](=O)[O-])c1F | inconclusive: 10 µM [inhibitor, partial curve, poor fit] | 

One compound at a time, as listed above:
CCOc1ncccc1C(=O)OCc1ccc(C(=O)OC)o1 as listed: Potency: inconclusive: 5.62 µM [inhibitor, partial curve, poor fit]
Cc1ccc(S(=O)(=O)C(c2ccccc2)c2c(C)noc2C)cc1 (centres undefined) as listed: Potency: inconclusive: 25.1 µM [inhibitor, partial curve, poor fit]
